Reference: the supplement of paper PMC10849652
The other results are listed elsewhere or left out.

Chains of the proteins cited; added tags and fusions are not shown. Lines headed by an entry give the natural chain unless they say otherwise; changes in a name come on top.
UniProt Q8N7R7: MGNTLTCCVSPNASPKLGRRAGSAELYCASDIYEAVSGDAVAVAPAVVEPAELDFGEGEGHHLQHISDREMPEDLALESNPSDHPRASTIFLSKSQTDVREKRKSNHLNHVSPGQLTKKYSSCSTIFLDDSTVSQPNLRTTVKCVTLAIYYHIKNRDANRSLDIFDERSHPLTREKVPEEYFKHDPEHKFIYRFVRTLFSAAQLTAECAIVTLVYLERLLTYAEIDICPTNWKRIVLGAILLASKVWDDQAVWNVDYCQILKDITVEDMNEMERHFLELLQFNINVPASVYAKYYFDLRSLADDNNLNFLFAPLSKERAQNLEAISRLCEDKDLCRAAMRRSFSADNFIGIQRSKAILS
UniProt Q96S94: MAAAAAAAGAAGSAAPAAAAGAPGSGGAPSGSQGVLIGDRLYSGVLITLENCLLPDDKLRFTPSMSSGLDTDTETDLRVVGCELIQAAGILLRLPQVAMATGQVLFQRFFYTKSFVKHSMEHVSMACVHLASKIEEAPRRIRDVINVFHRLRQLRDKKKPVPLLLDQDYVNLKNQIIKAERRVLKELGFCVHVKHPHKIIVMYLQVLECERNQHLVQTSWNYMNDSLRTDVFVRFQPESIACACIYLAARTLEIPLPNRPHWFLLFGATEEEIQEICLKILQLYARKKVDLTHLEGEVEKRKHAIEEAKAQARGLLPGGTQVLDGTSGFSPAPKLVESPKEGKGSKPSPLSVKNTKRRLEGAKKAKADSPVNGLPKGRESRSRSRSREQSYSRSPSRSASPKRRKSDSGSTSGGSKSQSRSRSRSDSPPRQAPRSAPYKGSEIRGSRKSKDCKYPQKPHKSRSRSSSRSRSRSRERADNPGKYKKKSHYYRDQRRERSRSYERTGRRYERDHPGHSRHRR
UniProt Q7Z3E2: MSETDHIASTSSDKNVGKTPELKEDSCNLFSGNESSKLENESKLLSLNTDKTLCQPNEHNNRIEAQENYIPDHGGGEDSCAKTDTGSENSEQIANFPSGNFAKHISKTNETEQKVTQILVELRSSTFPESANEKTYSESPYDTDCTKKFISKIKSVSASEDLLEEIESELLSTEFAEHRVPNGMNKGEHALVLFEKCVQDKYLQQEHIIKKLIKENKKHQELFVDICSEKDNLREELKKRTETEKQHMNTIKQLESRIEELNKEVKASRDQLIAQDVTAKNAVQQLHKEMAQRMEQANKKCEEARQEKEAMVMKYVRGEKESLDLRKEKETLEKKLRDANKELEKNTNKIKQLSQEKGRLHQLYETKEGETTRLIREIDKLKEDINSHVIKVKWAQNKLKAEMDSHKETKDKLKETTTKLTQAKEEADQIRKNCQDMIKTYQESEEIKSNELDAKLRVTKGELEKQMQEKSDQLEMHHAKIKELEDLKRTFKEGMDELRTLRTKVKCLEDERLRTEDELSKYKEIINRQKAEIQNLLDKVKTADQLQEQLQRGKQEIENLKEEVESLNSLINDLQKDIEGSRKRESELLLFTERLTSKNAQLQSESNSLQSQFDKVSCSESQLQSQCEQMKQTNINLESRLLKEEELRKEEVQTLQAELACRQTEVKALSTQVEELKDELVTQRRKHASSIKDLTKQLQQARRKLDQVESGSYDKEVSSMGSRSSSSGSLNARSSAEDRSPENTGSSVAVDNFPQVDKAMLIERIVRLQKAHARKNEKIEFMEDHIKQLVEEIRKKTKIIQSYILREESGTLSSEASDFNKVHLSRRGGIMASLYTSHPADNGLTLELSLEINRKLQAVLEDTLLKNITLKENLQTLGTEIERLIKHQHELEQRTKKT
UniProt Q5ZPR3: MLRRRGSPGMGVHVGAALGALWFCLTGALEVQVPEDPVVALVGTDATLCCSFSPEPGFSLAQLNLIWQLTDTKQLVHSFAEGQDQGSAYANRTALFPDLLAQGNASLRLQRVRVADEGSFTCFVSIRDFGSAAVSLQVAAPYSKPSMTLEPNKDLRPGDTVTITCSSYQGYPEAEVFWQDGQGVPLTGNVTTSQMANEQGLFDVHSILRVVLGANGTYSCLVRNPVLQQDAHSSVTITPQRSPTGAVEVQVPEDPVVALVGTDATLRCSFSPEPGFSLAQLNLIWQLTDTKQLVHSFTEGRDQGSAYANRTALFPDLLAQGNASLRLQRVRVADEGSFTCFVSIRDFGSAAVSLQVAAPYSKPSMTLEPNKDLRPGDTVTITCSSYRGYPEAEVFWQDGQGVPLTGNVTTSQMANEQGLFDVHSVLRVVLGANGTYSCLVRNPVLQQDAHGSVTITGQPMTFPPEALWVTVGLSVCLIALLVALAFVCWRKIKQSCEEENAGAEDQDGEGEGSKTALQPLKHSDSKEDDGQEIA
UniProt Q15834: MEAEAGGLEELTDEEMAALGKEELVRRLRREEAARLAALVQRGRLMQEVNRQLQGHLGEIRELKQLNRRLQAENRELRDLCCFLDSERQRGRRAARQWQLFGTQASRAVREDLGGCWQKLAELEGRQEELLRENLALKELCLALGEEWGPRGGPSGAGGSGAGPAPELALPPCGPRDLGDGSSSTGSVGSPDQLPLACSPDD
UniProt P30307: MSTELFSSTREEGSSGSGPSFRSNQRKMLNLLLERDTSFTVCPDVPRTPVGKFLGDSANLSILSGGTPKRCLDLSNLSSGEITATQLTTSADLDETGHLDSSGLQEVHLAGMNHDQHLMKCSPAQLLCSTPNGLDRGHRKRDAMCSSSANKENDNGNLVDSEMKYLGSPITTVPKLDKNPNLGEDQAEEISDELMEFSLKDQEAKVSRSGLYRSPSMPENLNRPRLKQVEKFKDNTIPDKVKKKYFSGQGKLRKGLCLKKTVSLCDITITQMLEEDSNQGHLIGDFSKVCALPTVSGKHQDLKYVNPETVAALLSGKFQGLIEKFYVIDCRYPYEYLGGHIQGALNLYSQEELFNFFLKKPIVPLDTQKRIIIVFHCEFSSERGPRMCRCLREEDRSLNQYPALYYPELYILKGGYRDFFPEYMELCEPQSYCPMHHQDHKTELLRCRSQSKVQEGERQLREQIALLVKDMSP
UniProt P11049: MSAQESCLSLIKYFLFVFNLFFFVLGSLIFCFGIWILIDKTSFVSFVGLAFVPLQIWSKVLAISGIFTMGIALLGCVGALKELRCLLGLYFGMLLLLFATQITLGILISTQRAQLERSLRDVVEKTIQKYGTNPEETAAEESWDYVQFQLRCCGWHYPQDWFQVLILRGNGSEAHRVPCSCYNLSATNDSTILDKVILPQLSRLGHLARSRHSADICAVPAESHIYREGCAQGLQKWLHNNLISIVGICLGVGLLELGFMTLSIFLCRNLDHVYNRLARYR
UniProt Q9UIB8: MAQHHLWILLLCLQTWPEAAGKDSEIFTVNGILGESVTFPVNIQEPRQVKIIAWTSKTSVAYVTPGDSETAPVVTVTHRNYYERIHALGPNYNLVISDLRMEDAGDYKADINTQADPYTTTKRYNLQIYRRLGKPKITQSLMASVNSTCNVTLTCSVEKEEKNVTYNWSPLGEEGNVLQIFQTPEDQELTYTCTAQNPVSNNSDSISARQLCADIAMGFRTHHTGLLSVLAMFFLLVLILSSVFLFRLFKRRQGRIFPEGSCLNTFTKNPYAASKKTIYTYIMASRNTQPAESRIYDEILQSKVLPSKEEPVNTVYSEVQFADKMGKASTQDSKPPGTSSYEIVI
UniProt Q13951, whole entry, looked up: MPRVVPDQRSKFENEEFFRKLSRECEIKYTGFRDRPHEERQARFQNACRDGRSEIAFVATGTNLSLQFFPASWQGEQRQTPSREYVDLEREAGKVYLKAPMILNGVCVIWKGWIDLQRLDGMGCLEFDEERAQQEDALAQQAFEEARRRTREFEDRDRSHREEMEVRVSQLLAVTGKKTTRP
UniProt P0C221: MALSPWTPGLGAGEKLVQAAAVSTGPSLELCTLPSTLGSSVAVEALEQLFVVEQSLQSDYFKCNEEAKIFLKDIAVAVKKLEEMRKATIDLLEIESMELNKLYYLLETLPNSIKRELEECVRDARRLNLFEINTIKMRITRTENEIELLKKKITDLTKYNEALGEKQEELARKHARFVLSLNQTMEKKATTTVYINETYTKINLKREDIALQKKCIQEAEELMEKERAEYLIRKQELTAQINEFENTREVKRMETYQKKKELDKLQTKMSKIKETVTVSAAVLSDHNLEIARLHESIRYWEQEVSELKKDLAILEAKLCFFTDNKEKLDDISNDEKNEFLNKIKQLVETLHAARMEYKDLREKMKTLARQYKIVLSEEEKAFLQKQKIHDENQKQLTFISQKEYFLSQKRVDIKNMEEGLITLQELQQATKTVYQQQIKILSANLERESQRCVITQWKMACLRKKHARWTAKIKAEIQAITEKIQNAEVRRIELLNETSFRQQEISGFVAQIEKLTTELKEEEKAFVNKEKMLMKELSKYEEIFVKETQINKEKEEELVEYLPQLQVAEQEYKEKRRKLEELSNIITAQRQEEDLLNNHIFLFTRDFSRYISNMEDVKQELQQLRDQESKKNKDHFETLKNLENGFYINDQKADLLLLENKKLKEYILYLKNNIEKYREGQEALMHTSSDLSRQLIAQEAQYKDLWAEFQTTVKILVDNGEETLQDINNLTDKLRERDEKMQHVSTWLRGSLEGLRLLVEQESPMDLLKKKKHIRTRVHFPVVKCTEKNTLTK
UniProt P30304: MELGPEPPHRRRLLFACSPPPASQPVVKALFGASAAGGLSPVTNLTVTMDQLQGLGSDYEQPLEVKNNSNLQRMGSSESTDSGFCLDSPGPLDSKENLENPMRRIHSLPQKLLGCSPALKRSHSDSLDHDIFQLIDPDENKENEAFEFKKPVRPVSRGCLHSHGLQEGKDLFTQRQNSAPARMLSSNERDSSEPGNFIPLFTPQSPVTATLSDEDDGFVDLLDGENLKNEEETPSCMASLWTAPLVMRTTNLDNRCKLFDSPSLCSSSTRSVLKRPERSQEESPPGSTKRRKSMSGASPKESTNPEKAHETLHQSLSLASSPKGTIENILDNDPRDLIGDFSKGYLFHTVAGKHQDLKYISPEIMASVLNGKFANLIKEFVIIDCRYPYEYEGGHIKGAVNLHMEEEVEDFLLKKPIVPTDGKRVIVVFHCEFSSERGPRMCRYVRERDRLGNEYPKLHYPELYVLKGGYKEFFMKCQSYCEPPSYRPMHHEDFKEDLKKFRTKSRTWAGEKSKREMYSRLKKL
UniProt O14936: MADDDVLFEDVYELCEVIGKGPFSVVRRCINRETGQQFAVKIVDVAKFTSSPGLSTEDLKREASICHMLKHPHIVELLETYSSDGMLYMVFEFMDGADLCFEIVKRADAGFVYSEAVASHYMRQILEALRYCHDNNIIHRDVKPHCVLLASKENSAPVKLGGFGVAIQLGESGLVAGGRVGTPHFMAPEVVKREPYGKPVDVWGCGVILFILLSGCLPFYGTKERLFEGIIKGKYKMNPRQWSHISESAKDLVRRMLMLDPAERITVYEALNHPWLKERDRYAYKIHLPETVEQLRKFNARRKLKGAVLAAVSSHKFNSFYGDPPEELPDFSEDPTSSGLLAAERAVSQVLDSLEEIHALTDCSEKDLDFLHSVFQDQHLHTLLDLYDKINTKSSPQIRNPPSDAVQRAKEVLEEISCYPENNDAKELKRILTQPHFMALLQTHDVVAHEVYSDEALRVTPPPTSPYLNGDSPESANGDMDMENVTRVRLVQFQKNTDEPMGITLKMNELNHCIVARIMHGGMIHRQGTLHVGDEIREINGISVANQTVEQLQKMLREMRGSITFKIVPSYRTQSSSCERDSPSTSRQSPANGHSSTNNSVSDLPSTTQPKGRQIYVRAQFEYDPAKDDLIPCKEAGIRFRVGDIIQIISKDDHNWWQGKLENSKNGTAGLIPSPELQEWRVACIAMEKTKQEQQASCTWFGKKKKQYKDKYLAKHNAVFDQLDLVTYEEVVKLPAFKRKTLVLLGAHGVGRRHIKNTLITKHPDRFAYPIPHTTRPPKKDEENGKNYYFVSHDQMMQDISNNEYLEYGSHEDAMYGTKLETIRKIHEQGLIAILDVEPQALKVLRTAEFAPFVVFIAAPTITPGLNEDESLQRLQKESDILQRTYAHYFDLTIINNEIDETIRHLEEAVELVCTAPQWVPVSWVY
UniProt O96020, whole entry, looked up: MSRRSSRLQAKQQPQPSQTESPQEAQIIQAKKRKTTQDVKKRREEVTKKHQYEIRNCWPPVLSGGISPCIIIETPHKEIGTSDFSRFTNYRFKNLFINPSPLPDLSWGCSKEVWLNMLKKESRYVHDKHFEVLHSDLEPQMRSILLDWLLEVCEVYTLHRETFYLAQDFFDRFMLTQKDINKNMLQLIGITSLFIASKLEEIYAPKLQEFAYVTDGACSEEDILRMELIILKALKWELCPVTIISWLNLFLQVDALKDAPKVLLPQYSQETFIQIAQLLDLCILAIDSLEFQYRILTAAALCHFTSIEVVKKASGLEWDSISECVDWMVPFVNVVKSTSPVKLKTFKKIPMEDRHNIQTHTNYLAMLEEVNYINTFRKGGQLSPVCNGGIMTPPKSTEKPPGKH

Key:
Assay in all cases: log2 fold change, soluble protein after heating vs DMSO (PISA); higher = thermal stabilisation; K562 cells, 10 uM, 30 min; active = over 0.2 and 3.5 SD of the protein, either way, in both replicates (recomputed)
[1] = compound: CC1=C(C=C(C=C1)NC(=O)C2=CC(=CC=C2)C(C)(C)C#N)NC3=CC4=C(C=C3)N=CN(C4=O)C
Outline: (§1)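 Thermal stability values are relative to control samples and come from duplicates. They are expressed as log2 fold changes. For measurement, K562 cells (2×10^6 cells/mL) received 10 μM compound for 30 min, and aliquots were heated for 3 min over 48°C-58°C, pooled, and extracted at 4°C in PBS with 0.5% NP-40. Soluble protein, the supernatant after 21,000xg for 90 min, was quantified by TMTpro 16plex LC-MS/MS with equalised channel sums.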

[2] = compound: CC1=NC(=CC=C1)C2=C(N=C(N2)C(C)(C)C)C3=CC4=NC=CN=C4C=C3
Outline: as §1

[3] = compound: CCCCN(Cc1ccc(C(=O)NO)cc1)C(=O)Nc1ccccc1 [Nexturastat A]
Outline: as §1

[4] = compound: CCCc1cc(C)[nH]c(=O)c1CNC(=O)c1cc(-c2ccnc(N3CCN(C)CC3)c2)cc2c1cnn2C(C)C
Outline: as §1

[5] = compound: CCN(CC)Cc1ccc2cc(COC(=O)Nc3ccc(C(=O)NO)cc3)ccc2c1 [givinostat]
Outline: as §1

[6] = compound: CCN(CCCOc1ccc2c(Nc3cc(CC(=O)Nc4cccc(F)c4)[nH]n3)ncnc2c1)CCOP(=O)(O)O [barasertib]
Outline: as §1

[7] = compound: CC1=C(C=C(C=C1)NC(=O)C2=CC(=CC=C2)N(C)C)NC(=O)C3=CC=C(C=C3)O
Outline: as §1

[8] = compound: CC1=CC=C(C=C1)SC2=C3C=C(SC3=CN=C2)C(=O)N
Outline: as §1

[9] = compound: CCCS(=O)(=O)Nc1ccc(F)c(C(=O)c2c[nH]c3ncc(-c4ccc(Cl)cc4)cc23)c1F [vemurafenib]
Outline: as §1

[10] = compound: CCCS(=O)(=O)Nc1ccc(F)c(C(=O)c2c[nH]c3ncc(Cl)cc23)c1F
Outline: as §1

Measured: log2 fold change

CCNYL1 (UniProt Q8N7R7)
inactive: [1] 0.056 | [2] 0.111 | [3] 0.119 | [4] -0.004 | [5] -0.007 | [6] -0.03

CCNL2 (UniProt Q96S94)
inactive: [1] 0.053 | [3] -0.02

CCND3 (UniProt P30281)
inactive: [7] 0.046 | [8] 0.063 | [3] -0.004 | [9] -0.077 | [10] -0.028 | [4] -0.062 | [5] 0.021 | [6] 0.079

CD46 (UniProt P15529)
inactive: [1] -0.031 | [9] -0.056 | [6] 0.046

CDC37 (UniProt K7EKQ2)
inactive: [1] 0.247 | [3] -0.21 | [6] 0.026

CD9 (UniProt P21926)
inactive: [1] -0.677 | [2] -0.182 | [3] 0.034

Three records picked at random from those above, as already listed:
CCND3 (UniProt P30281)
inactive: [7] 0.046 | [8] 0.063 | [3] -0.004 | [9] -0.077 | [10] -0.028 | [4] -0.062 | [5] 0.021 | [6] 0.079

CCNL2 (UniProt Q96S94)
inactive: [1] 0.053 | [3] -0.02

CD9 (UniProt P21926)
inactive: [1] -0.677 | [2] -0.182 | [3] 0.034

Next records.

CCDC186 (UniProt Q7Z3E2)
inactive: [1] -0.248 | [9] 0.156 | [4] 0.125 | [5] 0.258 | [6] -0.106

CASP7 isoform 3 (UniProt P55210)
inactive: [3] 0.255 | [5] -0.005 | [6] -0.249

CD276 (UniProt Q5ZPR3)
inactive: [2] -0.256 | [6] 0.054

CCDC28B (UniProt Q9BUN5)
inactive: [1] 0.076 | [8] -0.039 | [9] -0.061 | [10] -0.084 | [4] -0.119 | [5] 0.068 | [6] -0.064

CBFA2T2 isoform 4 (UniProt O43439)
inactive: [5] 0.049 | [6] 0.395

CCDC102A (UniProt Q96A19)
inactive: [8] 0.005 | [3] 0.075 | [9] -0.056 | [10] 0.124 | [5] 0.002

CD109 (UniProt Q6YHK3)
inactive: [9] -0.058

CDC27 (UniProt G5EA36)
inactive: [7] 0.119 | [8] 0.156 | [3] 0.165 | [10] 0.17 | [5] -0.025

CCDC85B (UniProt Q15834)
inactive: [1] 0.115 | [8] -0.05 | [9] -0.093 | [10] -0.212 | [4] -0.087 | [5] 0.062 | [6] -0.013

CBX3 (UniProt B8ZZ43)
inactive: [6] 0.049

CDC25C (UniProt P30307)
inactive: [3] 0.157 | [4] 0.092

CD99L2 isoform 5 (UniProt Q8TCZ2)
inactive: [8] -0.043 | [2] -0.139 | [3] -0.137 | [9] -0.046 | [10] -0.227 | [4] 0.027 | [5] 0.018 | [6] 0.002

CD37 (UniProt P11049)
inactive: [8] 0.01 | [9] 0.087 | [10] -0.029

CCDC66 (UniProt A2RUB6)
inactive: [3] 0.095 | [4] 0.086

CD99 (UniProt P14209)
inactive: [1] 0.003 | [8] -0.134 | [2] 0.005 | [3] -0.007 | [9] 0.003 | [10] -0.092 | [4] 0.021 | [5] 0.016 | [6] 0.021

CCDC187, A0A1W2PQX5
inactive: [7] -0.105 | [3] 0.003

CD84 (UniProt Q9UIB8)
inactive: [1] -0.181 | [3] 0.096 | [5] 0.006

CDADC1 (UniProt Q9BWV3)
inactive: [2] 0.146 | [9] -0.154

CCDC82 (UniProt Q8N4S0)
inactive: [7] -0.027 | [8] -0.007 | [2] -0.103 | [3] 0.043 | [9] 0.015 | [10] 0.055 | [4] -0.035 | [5] -0.074 | [6] 0.073

CCT6B isoform 3 (UniProt Q92526)
inactive: [1] -0.238 | [8] 0 | [2] -0.378 | [9] 0.14 | [10] 0.061 | [5] 0.414

CCNL1 (UniProt Q9UK58)
inactive: [4] -0.317 | [5] 0.156

CBFB (UniProt Q13951)
inactive: [7] -0.032 | [9] 0.111 | [4] -0.011 | [5] 0.089 | [6] 0.017

CCDC175 (UniProt P0C221)
inactive: [7] 0.022 | [8] 0.004 | [2] -0.087 | [9] -0.018 | [10] 0.034 | [4] -0.003 | [5] -0.006 | [6] 0.139

CD68 (UniProt P34810)
inactive: [1] 0.037 | [4] -0.06 | [5] -0.091 | [6] -0.313

CAV2 (UniProt P51636)
inactive: [1] -0.164 | [8] -0.018 | [2] 0.078 | [10] 0.087 | [4] 0.001 | [5] 0.137 | [6] 0.175

CDC25A (UniProt P30304)
inactive: [1] -0.03 | [2] 0.075 | [3] -0.071 | [4] -0.037 | [5] 0.051 | [6] 0.028

CASK (UniProt O14936)
inactive: [2] -0.091 | [5] -0.06

CBX8 (UniProt Q9HC52)
inactive: [7] 0.04

CCNE1 (UniProt P24864)
inactive: [7] 0.063 | [8] 0.024 | [3] 0.164 | [9] -0.054 | [10] 0.021 | [5] -0.009 | [6] 0.033

CD2BP2 (UniProt O95400)
inactive: [8] -0.018 | [2] -0.022 | [3] 0.182 | [9] -0.028 | [10] -0.216 | [5] 0.056 | [6] -0.021

CCDC71L isoform 2 (UniProt Q8N9Z2)
inactive: [1] 0.1 | [3] -0.209 | [5] 0.403 | [6] 0.132

CD44 (UniProt P16070)
inactive: [1] -0.108 | [8] 0.006 | [9] -0.128 | [10] 0.057

CCNE2 (UniProt O96020)
inactive: [2] 0.101 | [5] 0.094
